Data on 68 sequences can be found in PubChem BioAssay AID1347426 (Functional Genomics Laboratory (NCATS/FGL), 2020).

Screen size: about 31,000 sequences; about 1,400 (4.5%) were called active.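 How the source made its calls: active means median seed-adjusted z-score above 1 or below -1; inactive means the rest.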 The list shows a part of the results.

This test in a line: Novel Modifiers of Survival Motor Neuron (SMN) Protein: Gene Identification via Genome-wide siRNA Screen.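 Further: luminescence tracks full-length SMN protein made from the SMN2 reporter.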 The settings on record: HEK293T SMN2-luciferase reporter, siRNA knockdown, 72 h; actives lie on both sides. In a few lines: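 HEK293T cells stably expressing an SMN2 splicing/cDNA-luciferase reporter were reverse-transfected with a druggable-genome siRNA library and read by luminescence at 72 hours; hits defined by MAD score above 1.0 or below -1.0.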
(A reporter such as luciferase makes a cellular process visible.)
For GGUCGAAGUGUACCCAGUATT against USP11, the median seed-adjusted z-score is inactive: -0.0327.
The value for AGAGAUUCCUAUUGAAGGATT against TRIAP1 was inactive: 0.253.
GGCCGUCUAUAAUGCGAGATT against PLCL1: the median seed-adjusted z-score is inactive: 0.000254.
For GCAACUUCUUAAGACUAAATT against DBR1, the median seed-adjusted z-score was inactive: 0.438.
Turning to GGUCAUAGAAGGUUAUGAATT against CCT8, the median seed-adjusted z-score is inactive: -0.161.
Turning to GAUGGAGAGUAACCGCAGATT against TLX1, the median seed-adjusted z-score is inactive: -0.815.
The value for GUCUUGUAGUGGAGUGGAATT against VDAC3 was inactive: 0.646.
Turning to GAAUCAGCUUAGUCAAUGATT against SUV39H2, the median seed-adjusted z-score was inactive: -0.279.
As for CGCAAGGUAUUAACAAUCUTT against PPEF2, the median seed-adjusted z-score is inactive: 0.354.
Turning to AGGCUACCAUGACUAUUGATT against PPM1G, the median seed-adjusted z-score was inactive: 0.073.
CCACUACAACGGCACUUUUTT against FKBP10: the median seed-adjusted z-score was inactive: 0.229.
On to GCUCCACCGAUGACAAGAATT against ZNF683, for which the median seed-adjusted z-score is inactive: -0.452.
With CAUCAAAACUUGGAGAGCATT against FN3K, the median seed-adjusted z-score was inactive: -0.508.
With AGAACAUAGAUGUUUUGGATT against VNN3 the figure was inactive: 0.343; with AGAUCGUGCAGAUGAGUAATT against DGKQ, inactive: -0.0985; with GAGCAUUACGAAAAGGACATT against SLC22A16, inactive: 0.0878.
On to CAGCUGAUCCGAUUCCUGATT against IL4, for which the median seed-adjusted z-score is inactive: -0.192.
As to AGGGUUUUGUGAACCAGAATT against HYAL2, the median seed-adjusted z-score is inactive: 0.056.
GUACCUCGUAAAUCACGAATT against NFAT5: the median seed-adjusted z-score was inactive: 0.106.
On to CAUCCGAGCUUAUUGUACATT against TTPA, for which the median seed-adjusted z-score is inactive: -0.208.
As to GGAAGAGUUGAAGCACAUUTT against CALN1, the median seed-adjusted z-score is inactive: 0.0753.
Turning to GGAAGAUCCAAAUCCGCUATT against PPP1R13B, the median seed-adjusted z-score is inactive: 0.0943.
As for GCUUUCAACGGGUCUGUCATT against P2RX4, the median seed-adjusted z-score was inactive: 0.467.
In the case of CCCUUCUCAUUAGUAAGAUTT against TUBB4Q, the median seed-adjusted z-score was inactive: -0.0288.
With CGGUUUCUACAUGCAGAGATT against HSPA1A the figure was inactive: -0.833.
Consider CUAUAAGUCUAGUAGCAAATT against WNK2, for which the median seed-adjusted z-score was inactive: 0.212.
GCACUUUCAUAGACAACGATT against PON2: the median seed-adjusted z-score was inactive: 0.
The value for GCAAGAGAAUUAGAUCAGATT against SLC16A12 was inactive: 0.0219.
On to GCGAGUACAUAGAUCGGAATT against ZDHHC23, for which the median seed-adjusted z-score is inactive: -0.536.
As to CAGUGCACCAGAUCCAUAATT against MPP1, the median seed-adjusted z-score is inactive: -0.0762.
Turning to AUCGAAUCCUGAUACAGCATT against IDI2, the median seed-adjusted z-score is inactive: 0.578.
With GGACCAUACCCAUUGUCCATT against SHROOM1, the median seed-adjusted z-score is inactive: 0.0461.
GACCGGCAAUUGUAGUACUTT against USO1: the median seed-adjusted z-score is inactive: 0.21.
As to GCACAGUUCUACUCGAAAUTT against PCDHA3, the median seed-adjusted z-score is inactive: 0.311.
On to CAGAGACAAUGAUAUCGCATT against TNN, for which the median seed-adjusted z-score was inactive: -0.122.
The value for GAGACUUAAUUAGACGAAUTT against OSBPL11 was inactive: 0.535; that for GGCAAGUCUGGAUAACGAATT against RIPK3 was inactive: 0.123; that for CACUCAUUUAUGAUGGAAATT against POLR3F was inactive: 0.
The value for GGAAGGUUAGUGAUCGCUUTT against EXTL1 was inactive: 0.
On to GCCGCAUCGUAGCUCGUAATT against RRAD, for which the median seed-adjusted z-score was inactive: -0.267.
GGAUGUUGAUCAGAUGUUUTT against RAB3IP: the median seed-adjusted z-score was inactive: -0.191.
With GCUCCACCGAGAUUCCUGATT against TCEB1, the median seed-adjusted z-score is active: 1.08.
GAAUGAUCGAUUCAACUAUTT against TTBK2: the median seed-adjusted z-score was inactive: 0.423.
Take CCGUUCAACCUGACAGUAUTT against JAG1: the median seed-adjusted z-score is inactive: -0.32.
Consider GGAGGAGAGAAAUUCGACATT against MGRN1, for which the median seed-adjusted z-score was inactive: -0.318.
In the case of GGACGAAAGUGUGAACUAUTT against KCTD18, the median seed-adjusted z-score was inactive: -0.0473.
Regarding GAGGAUUACUAAUUGAUCUTT against CHM, the median seed-adjusted z-score is inactive: 0.743.
Regarding CACACCUCGUUGGACAUCATT against ZNF808, the median seed-adjusted z-score was inactive: 0.138.
On to GAACUUUGUUGGGAGAAGUTT against TIMM8A, for which the median seed-adjusted z-score was inactive: 0.173.
The value for GCUGCUUCAGACUACCAAATT against TXNDC9 was inactive: -0.176; that for CGCCCAACCUUACUACCUUTT against TXNDC14 was active: -2.39.
For the sequence CUACAACUCUCCAAACGAATT against ACAD11, the median seed-adjusted z-score is inactive: -0.679.
Take GGUUUGACAUGACACCUAATT against GFRA2: the median seed-adjusted z-score is inactive: 0.363.
For the sequence UGAUCAAAUUCACAACCAATT against UBE2L6, the median seed-adjusted z-score was inactive: -0.455.
The value for AGCCCUAUGUCAUCUCCUATT against ALDH2 was inactive: -0.216; that for AGCAUGCACUGAUCAGUUUTT against ACSL6 was inactive: -0.0934; that for CCACUGUUGGUGAUCCAAUTT against COL12A1 was inactive: 0.00422.
Take GAUUGGAAUCUAAUAACUATT against FGF2: the median seed-adjusted z-score was inactive: 0.0208.
With GGAGAAAAACUAUAUGAAUTT against ZNF585B, the median seed-adjusted z-score is inactive: 0.158.
With GCAGAACUCUAAGGAAAGATT against HINT3, the median seed-adjusted z-score is inactive: 0.
Take GCAGCAUGAGAAUGUCAAATT against GPD1: the median seed-adjusted z-score is inactive: 0.558.
For GCAUUAAGCCUGCAACUCATT against ZNF532, the median seed-adjusted z-score is inactive: -0.0289.
GCACCCUAGUUAUCGCUGATT against PALLD: the median seed-adjusted z-score is inactive: -0.307.
Consider GAAUCAUAAUCGCUCCUUUTT against SPRR1A, for which the median seed-adjusted z-score is inactive: -0.0536.
The value for GCAAGAGUAUCUAAAGAUATT against SAAL1 was inactive: 0.00224; that for GAGCGGGAAAUAAGCCUAATT against BTN3A2 was inactive: 0.402; that for GGAGAGAGACGUGUACAUATT against SREBF1 was inactive: -0.0469.
As for GGAAGAACUUAGUAAGUCATT against ZFP106, the median seed-adjusted z-score was inactive: 0.286.
